We go through one molecule from PMC10776994, “The SDS22:PP1:I3 complex: SDS22 binding to PP1 loosens the active site metal to prime metal exchange” (The Journal of Biological Chemistry, 2023).

Sequences of proteins named here, by UniProt entry; tags and fusion partners are left off. Residues count along the entry.
UniProt P62136, residues 7-300: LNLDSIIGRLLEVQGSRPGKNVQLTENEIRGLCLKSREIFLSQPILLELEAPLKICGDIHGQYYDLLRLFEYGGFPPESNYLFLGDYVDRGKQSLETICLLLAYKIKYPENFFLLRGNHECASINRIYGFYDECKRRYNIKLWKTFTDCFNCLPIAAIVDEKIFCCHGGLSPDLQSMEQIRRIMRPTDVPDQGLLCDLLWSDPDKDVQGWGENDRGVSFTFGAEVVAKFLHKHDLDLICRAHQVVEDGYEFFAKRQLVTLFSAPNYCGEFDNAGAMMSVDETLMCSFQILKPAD

For this assay, the target named is PP1α_(7-300) (UniProt P62136). Nature of the assay: crystal structure; SDS22_(56-360):PP1α_(7-300):I3_(27-68) (SPI) co-expressed in Expi293F; 3.2 Å, molecular replacement with PDB 6OBN; both purified.

These are yes or no findings as the source states them, for the method shown. Some entries that bind do so weakly or less than the wild type.

B1: SDS22_(56-360) (domain or fragment, UniProt Q15435 56-360)
chain: EEDPEEEHELPVDMETINLDRDAEDVDLNHYRIGKIEGFEVLKKVKTLCLRQNLIKCIENLEELQSLRELDLYDNQIKKIENLEALTELEILDISFNLLRNIEGVDKLTRLKKLFLVNNKISKIENLSNLHQLQMLELGSNRIRAIENIDTLTNLESLFLGKNKITKLQNLDALTNLTVLSMQSNRLTKIEGLQNLVNLRELYLSHNGIEVIEGLENNNKLTMLDIASNRIKKIENISHLTELQEFWMNDNLLESWSDLDELKGARSLETVYLERNPLQKDPQYRRKVMLALPSVRQIDATFVRF
Consider B1, for which the binding entry is given as “binds”.
